Source: PMC11109948
These are yes or no findings as the source states them, for the method shown. Binding seen in cells or lysates may run through a third protein. Here binding means that the protein was enriched with, or labelled near, the bait; the list need not be complete.

Chains of the proteins cited; added tags and fusions are not shown.
UniProt Q960X4: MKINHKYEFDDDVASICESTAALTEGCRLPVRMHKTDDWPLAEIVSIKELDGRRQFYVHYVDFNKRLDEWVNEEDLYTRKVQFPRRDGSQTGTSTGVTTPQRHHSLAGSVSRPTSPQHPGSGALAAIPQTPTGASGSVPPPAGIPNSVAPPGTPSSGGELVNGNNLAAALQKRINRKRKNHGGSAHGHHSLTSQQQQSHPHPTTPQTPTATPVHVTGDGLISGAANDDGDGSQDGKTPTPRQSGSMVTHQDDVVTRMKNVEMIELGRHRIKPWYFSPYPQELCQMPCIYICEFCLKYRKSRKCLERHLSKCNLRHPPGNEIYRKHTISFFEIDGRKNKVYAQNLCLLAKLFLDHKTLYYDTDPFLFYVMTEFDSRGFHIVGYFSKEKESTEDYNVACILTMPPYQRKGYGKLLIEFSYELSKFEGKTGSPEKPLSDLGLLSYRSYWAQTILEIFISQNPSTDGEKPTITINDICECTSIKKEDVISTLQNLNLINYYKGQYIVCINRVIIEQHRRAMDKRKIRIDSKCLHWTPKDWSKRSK

Target: dTip60 (KAT5) with N-terminal TwinStrep tag (Drosophila melanogaster) (UniProt Q960X4)
Experiment: affinity purification with mass spectrometry; three subunits co-expressed in Sf21; lysate (300 mM KCl, RNase A, benzonase) loaded on StrepTrap Streptactin column, washed with 300 mM KCl, eluted with biotin; subunits verified by mass spectrometry

- binding: binds
B1: Ing3 (protein, UniProt Q9VWS0 1-686)
chain: MLYLEDYLEMIEHLPQELRDRFTEMRELDLAVQNNMDSLDKKAHMFFKQCKRDELQHESMDTEFHSLRGEYFKVMEDADEKVAIATQIHELVERYLRRLDSELFKFKCELEADNNGITEILERRSLELDGNSTAATALLLSMNQKENRYYGASSANTMVNSSTGHATGAATGSSGIALVSGAAGTGGALSSISTAQLGSSQRHRKLEKRRETICTVPVQEKRANLNHSLPVVGSGSTTAAAASSSSATTAAAAASLASATTAQTHVSNHIGSIAATHLTLPVAMGVAGGSSSLASSSLATGTGSLVRQLPTNLTHTVLSTSGGATAAAAAGGNSTSVVAAGTAHGHAHVSGHSAAGATVTYNLQQLGGGAAASSAIAAAASQAIVATQQMQQGRRTASLKASYEAIHGTAGTTTDFWTQAGQGGLQQSTAGSVTVAAGTALATGAAGGSSTGSHHSHHSQSHHGGHGHGHGHGHGHGHGHGHHSSSGHGGGHSSHHQEKKQKKKLTTALTLPTVQPTAGSSSGNSIGSSSSISLESVNKLTTSAALAAASATTTYMSVGGQALLAMTPGGGGGGNLAESSAEGVPAGMIAMNLPTTTVTPGSSLTIGENGLVVEQTNEGEWSYDPNEPRYCTCNQVSYGDMVACDNDACPYEWFHYPCVGITQPPKGKWYCPKCTASMRRRGNRKN
